Measurements reported in PubChem BioAssay AID1259405 (NCATS, 2018).

Test: 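Knock-downs that lift recombinant protein yield in hamster ovary cells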 (primary screen)
System: Chinese hamster CHO-K1 ovary cells with stable secreted eGFP expression
Knock-down reagent: single siRNA against mouse genes, 0.8 pmol siRNA per well (2 µl of 400 nM stock)
Time to read-out: 3 days
Read-out: 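Per-well intracellular GFP measured by laser scanning cytometry, plus viability from ATP luminescence, each relative to plate median of non-targeting control wells, in %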
Reading the numbers: GFP, % of control: higher = more GFP per well, higher productivity
Rule for the call: 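a knock-down is called active if GFP reaches 120% or more of non-targeting control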
This is an unselected part of about 50,000 reagents tested. In the full data, about 4,000 (8%) got an active call. 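Mouse siRNA library applied to hamster cells; one well for each siRNA.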 The numbers tell different reagents against one gene apart. Not all columns of the deposit are shown.

GFP, % of control, by gene and reagent
Rrh (retinal pigment epithelium derived rhodopsin homolog): #1 112 inactive; #2 52.3 inactive; #3 55.4 inactive
Or5p70 (olfactory receptor family 5 subfamily P member 70): #1 76.5 inactive; #2 96.8 inactive; #3 86.8 inactive
Rhox2a (reproductive homeobox 2A): #1 128 active; #2 81.6 inactive; #3 145 active
Acsl3 (acyl-CoA synthetase long-chain family member 3): #1 83.1 inactive; #2 45.5 inactive; #3 113 inactive
Mbnl3 (muscleblind like splicing factor 3): #1 52.9 inactive; #2 135 active; #3 80.9 inactive

Ordered by “GFP, % of control” (descending): 5 of the entries above
gene	reagent no.	GFP, % of control	outcome
Rhox2a (reproductive homeobox 2A)	3	145	active
Rhox2a (reproductive homeobox 2A)	1	128	active
Or5p70 (olfactory receptor family 5 subfamily P member 70)	3	86.8	inactive
Acsl3 (acyl-CoA synthetase long-chain family member 3)	1	83.1	inactive
Rhox2a (reproductive homeobox 2A)	2	81.6	inactive

The listing continues:
GFP, % of control, by gene and reagent
Tnfrsf13c (tumor necrosis factor receptor superfamily, member 13c): #1 81.8 inactive; #2 106 inactive; #3 171 active; #4 85.8 inactive; #5 96.2 inactive; #6 82.1 inactive
Pcgf2 (polycomb group ring finger 2): #1 34.8 inactive; #2 120 inactive; #3 86.3 inactive
Zfp516 (zinc finger protein 516): #1 59.5 inactive; #2 89.2 inactive
Trav7d-6 (T cell receptor alpha variable 7D-6): #1 53.4 inactive; #2 39.6 inactive; #3 95.5 inactive
Crebzf (CREB/ATF bZIP transcription factor): #1 68.9 inactive; #2 119 inactive; #3 55.4 inactive
Dtna (dystrobrevin alpha): #1 53 inactive; #2 61.7 inactive
